From patent publication US11058738B2, “Herbal preparation for accelerating wounds and skin inflammations healing, especially for treatment of herpes and acne, and its application” (WYŻSZA SZKOŁA MEDYCZNA W BIAŁYMSTOKU, priority 2015, dated 2021)
Some entries share one result that the patent states for a list of compounds.

Tested on: open wounds
Assay: Epithelialization and wound healing in mammals with open wounds
Type: in vivo
Description: A following semi-solid preparation was prepared for the study which was obtained by mixing together: • 40% w/w Melittis melissophyllum L. from the whole plant, • 20% w/w of 96% ethyl alcohol, • 40% w/w Vaseline album—a hydrocarbon based substance used in lipophilic ointments.
The substance, etched by ethyl alcohol, is dissolved with help of heat in a smooth ointment medium for better dispersion ofbiologically active substances contained in the test extract. It could also be mixed in a cold lipophilic medium. It is important that the substance has been dissolved in the medium at the concentration below saturation.
In the study three groups of mammals with open wounds were involved:
I control group—no treatment was applied to the wound, even antiseptic one.
II group—a typical antiseptic agent was used, chlorhexidine, in accordance with a standard protocol regarding a treatment of an infected wound.
III group—the herbal preparation with a Melittis melissophyllum L. extract was used.
The herbal preparation applied in a treatment of open wounds. It was used in a similar way as described in Example I. The experiment confirmed that the herbal preparation based on Melittis melissophyllum L. definitely accelerates repair processes during the wound healing.

For `[H]/N=C(\N/C(=N/[H])NCCCCCCNC(=N)NC(=N)Nc1ccc(Cl)cc1)Nc1ccc(Cl)cc1` [Chlorhexidine, chlorhexidine], the “first regional crust rejection started” value was 7 to 8 days.
